# According to publication PMC4029728:
# The chains behind the UniProt entries cited, without tags or fusion partners. Residues count along the entry.
# UniProt P42224, 1-746: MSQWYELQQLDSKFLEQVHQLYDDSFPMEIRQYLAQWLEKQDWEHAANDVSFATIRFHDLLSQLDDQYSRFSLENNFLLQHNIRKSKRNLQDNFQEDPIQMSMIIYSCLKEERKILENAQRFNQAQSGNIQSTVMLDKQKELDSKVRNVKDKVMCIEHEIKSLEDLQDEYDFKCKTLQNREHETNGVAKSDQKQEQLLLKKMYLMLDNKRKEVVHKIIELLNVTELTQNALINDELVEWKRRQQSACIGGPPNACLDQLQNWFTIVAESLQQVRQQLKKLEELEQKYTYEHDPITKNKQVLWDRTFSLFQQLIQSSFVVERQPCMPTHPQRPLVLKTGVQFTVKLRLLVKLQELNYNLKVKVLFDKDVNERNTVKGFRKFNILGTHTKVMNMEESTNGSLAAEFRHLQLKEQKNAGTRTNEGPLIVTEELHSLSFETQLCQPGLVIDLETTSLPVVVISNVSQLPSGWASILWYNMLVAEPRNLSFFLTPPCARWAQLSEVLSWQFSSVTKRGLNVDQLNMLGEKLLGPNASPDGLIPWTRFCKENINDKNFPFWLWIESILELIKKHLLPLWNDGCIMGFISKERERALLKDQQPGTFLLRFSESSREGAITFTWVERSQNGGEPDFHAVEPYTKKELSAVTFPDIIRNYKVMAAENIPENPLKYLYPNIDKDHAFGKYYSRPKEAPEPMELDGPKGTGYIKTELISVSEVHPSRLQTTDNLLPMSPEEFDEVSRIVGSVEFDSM
# UniProt P42224, 1-746 E559A: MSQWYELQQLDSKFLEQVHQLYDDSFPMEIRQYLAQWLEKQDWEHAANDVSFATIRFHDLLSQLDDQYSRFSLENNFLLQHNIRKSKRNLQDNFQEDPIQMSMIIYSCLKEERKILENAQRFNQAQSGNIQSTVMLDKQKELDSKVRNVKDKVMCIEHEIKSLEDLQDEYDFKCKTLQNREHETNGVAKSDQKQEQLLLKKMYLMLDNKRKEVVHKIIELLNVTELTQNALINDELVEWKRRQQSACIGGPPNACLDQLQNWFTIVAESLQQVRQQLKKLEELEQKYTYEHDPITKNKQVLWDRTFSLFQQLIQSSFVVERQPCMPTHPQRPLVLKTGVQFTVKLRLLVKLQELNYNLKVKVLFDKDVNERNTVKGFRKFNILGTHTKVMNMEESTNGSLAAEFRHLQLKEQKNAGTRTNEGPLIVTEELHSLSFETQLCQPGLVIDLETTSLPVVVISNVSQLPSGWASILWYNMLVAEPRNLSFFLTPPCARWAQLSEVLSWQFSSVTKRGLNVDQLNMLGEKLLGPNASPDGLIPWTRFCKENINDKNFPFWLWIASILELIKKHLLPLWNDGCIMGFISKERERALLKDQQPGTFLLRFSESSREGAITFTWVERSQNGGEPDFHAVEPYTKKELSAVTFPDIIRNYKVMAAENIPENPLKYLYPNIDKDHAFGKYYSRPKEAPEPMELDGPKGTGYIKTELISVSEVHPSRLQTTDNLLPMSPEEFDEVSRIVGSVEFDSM
# UniProt P42224, 1-746 E563A: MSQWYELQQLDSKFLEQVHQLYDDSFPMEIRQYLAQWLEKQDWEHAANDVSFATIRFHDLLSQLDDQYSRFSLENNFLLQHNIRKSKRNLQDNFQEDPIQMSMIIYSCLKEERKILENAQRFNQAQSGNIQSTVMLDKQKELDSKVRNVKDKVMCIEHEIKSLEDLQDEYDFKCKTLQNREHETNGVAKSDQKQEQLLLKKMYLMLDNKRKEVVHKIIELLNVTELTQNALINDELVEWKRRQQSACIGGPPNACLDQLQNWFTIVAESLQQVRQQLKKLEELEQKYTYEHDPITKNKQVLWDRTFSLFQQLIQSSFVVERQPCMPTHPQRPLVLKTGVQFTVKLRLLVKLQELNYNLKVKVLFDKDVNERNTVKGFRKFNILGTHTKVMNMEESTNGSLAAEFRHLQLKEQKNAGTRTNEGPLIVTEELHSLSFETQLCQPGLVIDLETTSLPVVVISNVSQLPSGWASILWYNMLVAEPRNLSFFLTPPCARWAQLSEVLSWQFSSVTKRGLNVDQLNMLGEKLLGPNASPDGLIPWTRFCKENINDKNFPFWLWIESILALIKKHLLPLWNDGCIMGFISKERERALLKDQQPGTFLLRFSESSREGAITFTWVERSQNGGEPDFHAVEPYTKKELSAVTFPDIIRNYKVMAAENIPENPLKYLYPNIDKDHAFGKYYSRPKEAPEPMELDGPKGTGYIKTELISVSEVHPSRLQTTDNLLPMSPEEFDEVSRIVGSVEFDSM
# UniProt P42224, 1-746 K567A: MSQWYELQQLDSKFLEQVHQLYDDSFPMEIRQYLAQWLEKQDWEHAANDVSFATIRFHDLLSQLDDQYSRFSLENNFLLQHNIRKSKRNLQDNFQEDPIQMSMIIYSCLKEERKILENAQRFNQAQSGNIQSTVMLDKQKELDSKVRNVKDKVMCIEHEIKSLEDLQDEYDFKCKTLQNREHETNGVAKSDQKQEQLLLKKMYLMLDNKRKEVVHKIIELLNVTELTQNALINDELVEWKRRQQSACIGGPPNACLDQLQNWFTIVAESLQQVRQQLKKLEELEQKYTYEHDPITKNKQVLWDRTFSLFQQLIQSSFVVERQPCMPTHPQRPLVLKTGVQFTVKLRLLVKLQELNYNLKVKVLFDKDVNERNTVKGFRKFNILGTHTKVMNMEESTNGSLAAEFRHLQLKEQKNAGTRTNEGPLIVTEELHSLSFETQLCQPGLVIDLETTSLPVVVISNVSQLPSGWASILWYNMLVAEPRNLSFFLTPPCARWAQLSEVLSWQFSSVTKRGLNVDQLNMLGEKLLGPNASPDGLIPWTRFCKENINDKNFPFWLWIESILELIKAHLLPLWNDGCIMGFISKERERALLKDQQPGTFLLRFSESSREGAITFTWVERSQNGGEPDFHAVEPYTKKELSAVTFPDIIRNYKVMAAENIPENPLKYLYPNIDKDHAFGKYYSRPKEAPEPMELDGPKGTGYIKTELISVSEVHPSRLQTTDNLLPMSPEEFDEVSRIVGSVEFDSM
# UniProt P42224, whole entry K567A: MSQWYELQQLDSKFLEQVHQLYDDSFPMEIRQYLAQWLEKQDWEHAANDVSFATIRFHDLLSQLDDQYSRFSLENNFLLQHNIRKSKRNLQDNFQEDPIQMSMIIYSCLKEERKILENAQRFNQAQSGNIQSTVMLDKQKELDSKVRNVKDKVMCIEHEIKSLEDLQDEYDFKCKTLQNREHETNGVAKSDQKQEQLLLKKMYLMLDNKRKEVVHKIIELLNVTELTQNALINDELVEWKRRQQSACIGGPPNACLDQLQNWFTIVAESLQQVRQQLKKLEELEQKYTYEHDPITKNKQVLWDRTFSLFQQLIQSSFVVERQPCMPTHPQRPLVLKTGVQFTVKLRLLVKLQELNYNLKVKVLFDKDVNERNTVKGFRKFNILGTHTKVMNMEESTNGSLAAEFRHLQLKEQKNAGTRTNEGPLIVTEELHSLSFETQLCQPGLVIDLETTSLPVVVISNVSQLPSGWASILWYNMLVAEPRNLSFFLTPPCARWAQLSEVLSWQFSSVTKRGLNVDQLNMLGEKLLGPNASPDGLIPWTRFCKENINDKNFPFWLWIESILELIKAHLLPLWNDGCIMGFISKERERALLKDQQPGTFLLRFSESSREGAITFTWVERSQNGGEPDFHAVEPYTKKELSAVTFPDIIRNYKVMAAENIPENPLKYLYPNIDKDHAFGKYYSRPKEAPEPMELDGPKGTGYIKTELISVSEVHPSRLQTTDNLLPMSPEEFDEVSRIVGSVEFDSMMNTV
# UniProt P42224, whole entry E563A: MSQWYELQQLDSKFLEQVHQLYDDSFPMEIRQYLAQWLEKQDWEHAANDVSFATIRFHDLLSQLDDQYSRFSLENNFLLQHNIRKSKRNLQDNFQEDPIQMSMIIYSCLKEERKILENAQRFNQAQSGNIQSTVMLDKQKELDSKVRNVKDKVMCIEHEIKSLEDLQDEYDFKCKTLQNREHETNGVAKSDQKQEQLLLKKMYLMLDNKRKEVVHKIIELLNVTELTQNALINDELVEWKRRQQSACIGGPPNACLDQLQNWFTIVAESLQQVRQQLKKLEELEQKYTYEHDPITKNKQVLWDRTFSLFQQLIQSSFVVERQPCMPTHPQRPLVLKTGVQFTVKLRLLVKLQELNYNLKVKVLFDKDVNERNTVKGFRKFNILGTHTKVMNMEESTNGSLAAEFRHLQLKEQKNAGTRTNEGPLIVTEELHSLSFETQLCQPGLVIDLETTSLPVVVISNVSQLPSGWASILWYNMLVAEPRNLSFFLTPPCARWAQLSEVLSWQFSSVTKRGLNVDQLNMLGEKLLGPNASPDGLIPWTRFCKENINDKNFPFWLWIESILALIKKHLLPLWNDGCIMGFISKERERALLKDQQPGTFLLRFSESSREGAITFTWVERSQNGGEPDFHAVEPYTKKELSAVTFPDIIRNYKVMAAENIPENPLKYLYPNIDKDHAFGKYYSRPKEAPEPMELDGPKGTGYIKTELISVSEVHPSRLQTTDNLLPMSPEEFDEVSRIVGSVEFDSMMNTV
# UniProt P42224, whole entry E559A: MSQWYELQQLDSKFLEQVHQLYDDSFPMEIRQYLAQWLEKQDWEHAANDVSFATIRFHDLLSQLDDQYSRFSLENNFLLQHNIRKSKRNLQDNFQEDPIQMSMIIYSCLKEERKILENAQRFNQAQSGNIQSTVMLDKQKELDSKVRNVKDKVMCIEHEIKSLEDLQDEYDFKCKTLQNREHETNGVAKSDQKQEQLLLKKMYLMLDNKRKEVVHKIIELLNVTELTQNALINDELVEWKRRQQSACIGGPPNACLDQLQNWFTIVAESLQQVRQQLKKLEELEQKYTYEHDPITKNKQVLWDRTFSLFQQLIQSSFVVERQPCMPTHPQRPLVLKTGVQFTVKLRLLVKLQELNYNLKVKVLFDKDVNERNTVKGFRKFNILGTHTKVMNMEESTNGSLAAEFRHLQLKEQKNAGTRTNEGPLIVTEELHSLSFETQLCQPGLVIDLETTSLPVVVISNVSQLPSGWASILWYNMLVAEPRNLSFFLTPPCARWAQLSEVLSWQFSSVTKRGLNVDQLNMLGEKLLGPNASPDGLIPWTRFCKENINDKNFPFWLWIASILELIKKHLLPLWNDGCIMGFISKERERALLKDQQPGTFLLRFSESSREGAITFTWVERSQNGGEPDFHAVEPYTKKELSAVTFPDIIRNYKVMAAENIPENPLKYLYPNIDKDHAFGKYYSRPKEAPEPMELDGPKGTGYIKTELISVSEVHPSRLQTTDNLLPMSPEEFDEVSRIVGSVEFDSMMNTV
# Assays:
# STAT1-GFP WT (human) [1] = target: STAT1-GFP WT (human) (UniProt P42224); experiment: competition EMSA (off-rate); conditions: 750-fold unlabelled M67, hardly detectable after 10 min; EMSA: 4 ul cell extract + 1 ng 33P duplex, 15 min RT, 4% native gel at 4 C, competition on ice (EMSA buffer composition not given); pull-down 2 h at 4 C; protein in a lysate after overexpression; residues 1-746; protein details: C-terminal GFP; label: 33P by Klenow end-filling
# STAT1-GFP E559A (human) [2] = target: STAT1-GFP E559A (human) (UniProt P42224); experiment: competition EMSA (off-rate); conditions: 750-fold unlabelled M67, slower dissociation than WT; EMSA: 4 ul cell extract + 1 ng 33P duplex, 15 min RT, 4% native gel at 4 C, competition on ice (EMSA buffer composition not given); pull-down 2 h at 4 C; protein in a lysate after overexpression; residues 1-746; protein details: C-terminal GFP; label: 33P by Klenow end-filling
# STAT1-GFP E563A (human) [3] = target: STAT1-GFP E563A (human) (UniProt P42224); experiment: competition EMSA (off-rate); conditions: 750-fold unlabelled M67, slower dissociation than WT; EMSA: 4 ul cell extract + 1 ng 33P duplex, 15 min RT, 4% native gel at 4 C, competition on ice (EMSA buffer composition not given); pull-down 2 h at 4 C; protein in a lysate after overexpression; residues 1-746; protein details: C-terminal GFP; label: 33P by Klenow end-filling
# STAT1-GFP WT (human) [4] = target: STAT1-GFP WT (human) (UniProt P42224); experiment: EMSA; conditions: EMSA: 4 ul cell extract + 1 ng 33P duplex, 15 min RT, 4% native gel at 4 C, competition on ice (EMSA buffer composition not given), pull-down 2 h at 4 C, protein in a lysate after overexpression, residues 1-746, protein details: C-terminal GFP
# STAT1-GFP K567A (human) = STAT1-GFP K567A (human) (UniProt P42224); experiment: EMSA; conditions: EMSA: 4 ul cell extract + 1 ng 33P duplex, 15 min RT, 4% native gel at 4 C, competition on ice (EMSA buffer composition not given), pull-down 2 h at 4 C, protein in a lysate after overexpression, residues 1-746, protein details: C-terminal GFP
# STAT1-GFP E559A (human) [5] = target: STAT1-GFP E559A (human) (UniProt P42224); experiment: EMSA; conditions: EMSA: 4 ul cell extract + 1 ng 33P duplex, 15 min RT, 4% native gel at 4 C, competition on ice (EMSA buffer composition not given), pull-down 2 h at 4 C, protein in a lysate after overexpression, residues 1-746, protein details: C-terminal GFP
# STAT1-GFP E563A (human) [6] = target: STAT1-GFP E563A (human) (UniProt P42224); experiment: EMSA; conditions: EMSA: 4 ul cell extract + 1 ng 33P duplex, 15 min RT, 4% native gel at 4 C, competition on ice (EMSA buffer composition not given), pull-down 2 h at 4 C, protein in a lysate after overexpression, residues 1-746, protein details: C-terminal GFP
# [7] = target: STAT1 K567A untagged (human) (UniProt P42224); experiment: Tc45 dephosphorylation protection; conditions: protein in a lysate after overexpression
# [8] = target: STAT1 E563A untagged (human) (UniProt P42224); experiment: Tc45 dephosphorylation protection; conditions: 25 nM DNA, protein in a lysate after overexpression
# [9] = target: STAT1 WT untagged (human) (UniProt P42224); experiment: Tc45 dephosphorylation protection; conditions: 25 nM DNA, protein in a lysate after overexpression
# [10] = target: STAT1 E559A untagged (human) (UniProt P42224); experiment: Tc45 dephosphorylation protection; conditions: 25 nM DNA, protein in a lysate after overexpression
# [11] = target: STAT1 WT untagged (human) (UniProt P42224); experiment: pull-down, Western blot; conditions: IFNg-stimulated extract, protein in a lysate after overexpression
# [12] = target: STAT1 E559A untagged (human) (UniProt P42224); experiment: pull-down, Western blot; conditions: IFNg-stimulated extract; protein in a lysate after overexpression
# [13] = target: STAT1 K567A untagged (human) (UniProt P42224); experiment: pull-down, Western blot; conditions: no significant difference to 2xGAS, nonspecific binding similar to E559A; protein in a lysate after overexpression
# [14] = label: 33P by Klenow end-filling
# [15] = increased vs WT, label: 33P by Klenow end-filling
sequence,measurement,setting,value
CGACATTTCCCGTAAATCTG (double strand) [M67],binding result,STAT1-GFP WT (human) [1],binds
same,binding result,STAT1-GFP E559A (human) [2],binds
same,binding result,STAT1-GFP E563A (human) [3],binds
same,binding result,STAT1-GFP WT (human) [4]; [14],binds
same,binding result,"STAT1-GFP K567A (human); virtually no binding, label: 33P by Klenow end-filling",no binding
same,binding result,STAT1-GFP E559A (human) [5]; [15],binds
same,binding result,STAT1-GFP E563A (human) [6]; [15],binds
CGTTTCCCCGAAATTGACGGATTTACCCCAAC (double strand) [GAS-nonGAS],binding result,"[7]; 25 nM DNA, protection irrespective of GAS",binds
same,binding result,[8]; more protected than WT,binds
same,binding result,[9]; less protected than E559A/E563A,binds more weakly
same,binding result,[10]; more protected than WT,binds
same,binding result,STAT1-GFP WT (human) [4]; dimer > tetramer,binds
same,binding result,STAT1-GFP E559A (human) [5]; tetramer > dimer,binds
same,binding result,STAT1-GFP E563A (human) [6]; tetramer > dimer,binds
CGTTTCCCCGAAATTGACGGATTTCCCCGAAAC (double strand) [2xGAS],binding result,[7]; 25 nM DNA,binds
same,binding result,[8],binds
same,binding result,[9],binds
same,binding result,[10],binds
same,binding result,STAT1-GFP WT (human) [4]; tetramer > dimer,binds
same,binding result,STAT1-GFP K567A (human); weak tetramer binding,binds more weakly
same,binding result,STAT1-GFP E559A (human) [5]; tetramer > dimer,binds
same,binding result,STAT1-GFP E563A (human) [6]; tetramer > dimer,binds
CGTTTCCCCGAAATTGACGGATTTCCCCGAAAC (double strand) [2xGAS biotin],binding result,[11],binds
same,binding result,[12],binds
CGTTTACCCCAAATTGACGGATTTACCCCAAC (double strand) [2xnonGAS biotin],binding result,[13],binds
same,binding result,[11]; 4-fold below E559A,binds more weakly
same,binding signal,[12],4 fold vs WT
CGTTTACCCCAAATTGACGGATTTACCCCAAC (double strand) [2xnonGAS],binding result,[7]; protection irrespective of GAS,binds
same,binding result,STAT1-GFP WT (human) [4]; below detection threshold,no binding
same,binding result,STAT1-GFP K567A (human); below detection threshold,no binding
same,binding result,STAT1-GFP E559A (human) [5]; below detection threshold,no binding
same,binding result,STAT1-GFP E563A (human) [6]; below detection threshold,no binding
CTGCTTCCCTTTCCTACTAGCTGGAAATCCA (double strand) [CCL2 mutant],binding result,STAT1-GFP WT (human) [4]; [14],no binding
same,binding result,STAT1-GFP K567A (human); [14],no binding
CTGCTTCCCTTTCCTACTTCCTGGAAATCCA (double strand) [CCL2 native],binding result,STAT1-GFP WT (human) [4]; [14],binds
same,binding result,STAT1-GFP K567A (human); [14],binds more weakly

# Results from cells or extracts need not show a direct contact. For part of these data: No signal at the amounts used counts as a negative. For part of these data: At least one verdict was read from the data and is not stated in words by the source. The exact form of at least one protein or probe is not confirmed. For part of these data: The comparison behind a weaker result is the experiment's own reference, which may not be listed here. For part of these data: Whether high values mean tight binding is not given here for every scale.
